For experiment [1], the target named is CD40 (mouse (endogenous in A20.2J)) (UniProt P27512). Nature of the experiment: co-IP; activated receptor capture: 3x10^7 cells (A20.2J, HOIP-deficient or HOIP-reconstituted) incubated 60 min at room temperature with magnetic protein G beads coated with goat anti-rat IgG and anti-CD40 (1C10), lysed in 1% Triton X100, beads washed, Western blot; in some experiments cells pretreated 6 h with 25 µM SMAC-N7 peptide or DMSO. A general note: A western blot detects proteins with antibodies after separation by electrophoresis.

Protein sequences, listed by entry. Tags and fused reporters are not part of them. Residues count along the entry.
UniProt P27512, residues 20-289: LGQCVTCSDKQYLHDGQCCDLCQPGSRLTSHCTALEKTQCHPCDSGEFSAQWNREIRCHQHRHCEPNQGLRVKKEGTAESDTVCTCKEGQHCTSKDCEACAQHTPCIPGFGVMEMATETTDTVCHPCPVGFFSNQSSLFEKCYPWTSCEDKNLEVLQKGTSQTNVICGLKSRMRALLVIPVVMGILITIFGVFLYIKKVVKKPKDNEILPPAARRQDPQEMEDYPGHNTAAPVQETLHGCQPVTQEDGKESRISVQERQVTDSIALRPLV
UniProt Q62210: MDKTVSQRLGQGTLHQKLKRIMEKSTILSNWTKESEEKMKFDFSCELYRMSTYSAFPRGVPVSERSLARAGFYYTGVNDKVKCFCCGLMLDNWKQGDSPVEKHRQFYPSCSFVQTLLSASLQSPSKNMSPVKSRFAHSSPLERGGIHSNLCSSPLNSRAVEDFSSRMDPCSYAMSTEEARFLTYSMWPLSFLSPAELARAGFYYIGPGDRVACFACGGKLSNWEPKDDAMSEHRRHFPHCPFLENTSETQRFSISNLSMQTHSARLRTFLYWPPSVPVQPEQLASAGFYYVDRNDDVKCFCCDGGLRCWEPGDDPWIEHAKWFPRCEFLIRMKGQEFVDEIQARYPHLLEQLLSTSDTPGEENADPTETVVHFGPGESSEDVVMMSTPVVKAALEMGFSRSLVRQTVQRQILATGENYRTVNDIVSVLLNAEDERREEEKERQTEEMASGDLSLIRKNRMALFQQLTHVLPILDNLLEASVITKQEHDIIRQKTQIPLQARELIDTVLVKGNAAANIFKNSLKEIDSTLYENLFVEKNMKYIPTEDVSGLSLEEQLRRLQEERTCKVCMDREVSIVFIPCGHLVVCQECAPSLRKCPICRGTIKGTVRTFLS

Experiment [2] shares this target. The experiment is described as above. The source holds these as a separate data set.

Like-named read-outs stand apart in the source and are kept apart here. Results are given in words; binding and its absence hold for the method and conditions named. Binding seen in cells or lysates may run through a third protein. Some entries that bind do so weakly or less than the wild type.

cIAP1 (from UniProt Q62210 1-612): the binding entry in experiment [1] was “binds”.

B1: TRAF3 (protein, UniProt Q60803 1-567)
chain: MESSKKMDAAGTLQPNPPLKLQPDRGAGSVLVPEQGGYKEKFVKTVEDKYKCEKCRLVLCNPKQTECGHRFCESCMAALLSSSSPKCTACQESIIKDKVFKDNCCKREILALQVYCRNEGRGCAEQLTLGHLLVHLKNECQFEELPCLRADCKEKVLRKDLRDHVEKACKYREATCSHCKSQVPMIKLQKHEDTDCPCVVVSCPHKCSVQTLLRSELSAHLSECVNAPSTCSFKRYGCVFQGTNQQIKAHEASSAVQHVNLLKEWSNSLEKKVSLLQNESVEKNKSIQSLHNQICSFEIEIERQKEMLRNNESKILHLQRVIDSQAEKLKELDKEIRPFRQNWEEADSMKSSVESLQNRVTELESVDKSAGQAARNTGLLESQLSRHDQMLSVHDIRLADMDLRFQVLETASYNGVLIWKIRDYKRRKQEAVMGKTLSLYSQPFYTGYFGYKMCARVYLNGDGMGKGTHLSLFFVIMRGEYDALLPWPFKQKVTLMLMDQGSSRRHLGDAFKPDPNSSSFKKPTGEMNIASGCPVFVAQTVLENGTYIKDDTIFIKVIVDTSDLPDP
For the molecule B1, in experiment [2], the binding result was “binds”.

B2: TRAF2 (protein, UniProt P39429 1-501)
chain: MAAASVTSPGSLELLQPGFSKTLLGTRLEAKYLCSACKNILRRPFQAQCGHRYCSFCLTSILSSGPQNCAACVYEGLYEEGISILESSSAFPDNAARREVESLPAVCPNDGCTWKGTLKEYESCHEGLCPFLLTECPACKGLVRLSEKEHHTEQECPKRSLSCQHCRAPCSHVDLEVHYEVCPKFPLTCDGCGKKKIPRETFQDHVRACSKCRVLCRFHTVGCSEMVETENLQDHELQRLREHLALLLSSFLEAQASPGTLNQVGPELLQRCQILEQKIATFENIVCVLNREVERVAVTAEACSRQHRLDQDKIEALSNKVQQLERSIGLKDLAMADLEQKVSELEVSTYDGVFIWKISDFTRKRQEAVAGRTPAIFSPAFYTSRYGYKMCLRVYLNGDGTGRGTHLSLFFVVMKGPNDALLQWPFNQKVTLMLLDHNNREHVIDAFRPDVTSSSFQRPVSDMNIASGCPLFCPVSKMEAKNSYVRDDAIFIKAIVDLTGL
Take B2: the binding result in experiment [2] is given as “binds”.
